Test results from US5656440A, “Nucleotide sequences coding for the bovine β3 -adrenergic receptor (ARβ3) and their applications” (Virbac, priority 1993, dated 1997).

Tests used:
[1] = target: T1, bovine ARβ3 receptor (Bos taurus, UniProt P46626); experiment: competitive binding of ligands against [^125 I]cyanopindolol on intact CHO cells, bovine receptor (clone 62-26)
T1 construct: to liberate the 1598-base pair fragment containing the coding region of the bovine β3 gene; expressed in transfected cells
T1 sequence (P46626 1-405): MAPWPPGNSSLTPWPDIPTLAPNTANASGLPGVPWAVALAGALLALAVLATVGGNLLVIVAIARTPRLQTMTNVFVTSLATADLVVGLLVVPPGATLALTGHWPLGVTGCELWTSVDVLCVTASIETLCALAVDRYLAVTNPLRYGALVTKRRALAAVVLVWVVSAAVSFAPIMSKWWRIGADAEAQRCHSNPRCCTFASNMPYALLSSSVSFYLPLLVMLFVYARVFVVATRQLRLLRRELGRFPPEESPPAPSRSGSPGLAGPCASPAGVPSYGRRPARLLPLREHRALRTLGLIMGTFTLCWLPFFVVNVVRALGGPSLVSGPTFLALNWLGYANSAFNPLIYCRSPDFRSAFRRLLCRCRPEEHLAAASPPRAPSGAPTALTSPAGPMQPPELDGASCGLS
Protocol: Reaction is stopped by dilution with ice-cold PBS, the cells are filtered off and the radioactivity is measured in a gamma counter. The results were analysed using Graph-Pad.COPYRGT. software.

[2] = target: T1, bovine ARβ3 receptor; experiment: adenylate cyclase activation (cAMP accumulation) in CHO cells, bovine receptor (clone 62-26); format: cell-based
Protocol: Briefly, preconfluent cells in six-well plates (0.6×10^6 cells/well) are placed in contact or otherwise with increasing doses of ligands for 30 minutes at 37° C. Reaction is stopped by washing in PBS at 4° C. and adding 500 μl of 1N NaOH. After centrifugation and neutralization with 1N acetic acid, the cell lysates are recovered and the total amount of cAMP accumulated is determined using a commercial assay kit.

[3] = target: mouse ARβ3 receptor; settings: Mouse RAβ3-CHO; read-out: Binding Ki; cited from earlier work
[4] = target: human ARβ3 receptor; settings: Human RAβ3-CHO; read-out: Binding Ki; cited from earlier work
[5] = target: human ARβ3 receptor; settings: Human RAβ3-CHO; read-out: Accumul. cAMP Kact (adenylate cyclase activation constant); cited from earlier work

**Q.** Which Ki [1] does the source give for CC(C)NC[C@H](O)COc1cccc2ccccc12 [(- ) propranolol, (-)-propranolol] here?
**A.** 589 ± 74 nM

**Q.** And the EC50 [2]?
**A.** 661 nM

**Q.** What about the Ki [3] of the same compound?
**A.** 150 ± 22 nM

**Q.** What about the Ki [4] of the same compound?
**A.** 145 ± 8 nM

**Q.** And the EC50 [5]?
**A.** 1490 nM
